These are yes or no findings as the source states them, for the method shown. Binding seen in cells or lysates may run through a third protein. Some binding calls cover weakened binding; strength is not graded here. Sequences can lack the tags named with a protein.
Molecular target: 2xFLAG-tagged full-length Mts (Drosophila) (UniProt P23696)
Assay: co-IP; extracts of S2 cells transfected with three constructs together (V5-Vtd, V5-Tws and 2xFLAG-Mts)

By UniProt entry, the sequences of proteins in these tests, tags left out.
UniProt P23696: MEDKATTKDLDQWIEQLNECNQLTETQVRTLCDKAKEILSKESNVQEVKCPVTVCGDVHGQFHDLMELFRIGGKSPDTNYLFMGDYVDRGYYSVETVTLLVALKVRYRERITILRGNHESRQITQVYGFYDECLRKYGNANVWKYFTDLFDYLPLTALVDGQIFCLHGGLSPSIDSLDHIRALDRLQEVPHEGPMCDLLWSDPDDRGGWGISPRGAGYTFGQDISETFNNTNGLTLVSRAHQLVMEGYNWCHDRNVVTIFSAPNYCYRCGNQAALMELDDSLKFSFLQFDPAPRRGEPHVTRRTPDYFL

binding: binds
B1: V5-tagged-Tws (protein, UniProt P36872 1-499)
chain: MGRWGRQSPVLEPPDPQMQTTPPPPTLPPRTFMRQSSITKIGNMLNTAININGAKKPASNGEASWCFSQIKGALDDDVTDADIISCVEFNHDGELLATGDKGGRVVIFQRDPASKAANPRRGEYNVYSTFQSHEPEFDYLKSLEIEEKINKIRWLQQKNPVHFLLSTNDKTVKLWKVSERDKSFGGYNTKEENGLIRDPQNVTALRVPSVKQIPLLVEASPRRTFANAHTYHINSISVNSDQETFLSADDLRINLWHLEVVNQSYNIVDIKPTNMEELTEVITAAEFHPTECNVFVYSSSKGTIRLCDMRSAALCDRHSKQFEEPENPTNRSFFSEIISSISDVKLSNSGRYMISRDYLSIKVWDLHMETKPIETYPVHEYLRAKLCSLYENDCIFDKFECCWNGKDSSIMTGSYNNFFRVFDRNSKKDVTLEASRDIIKPKTVLKPRKVCTGGKRKKDEISVDCLDFNKKILHTAWHPEENIIAVAATNNLFIFQDKF

— PMC6527568
